Data as given in PubChem BioAssay AID1259284 (Sanger Institute, 2017).
Test: 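Kinase genes needed for growth or acting with cancer drugs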 (primary screen). Cells: SW48 human colorectal cancer cells. Reagents: siRNA pool against human genes. Conditions: anchor drug BYL719 at 1 µM, cetuximab at 5 µg/ml or trametinib at 10 nM, or DMSO vehicle alone. Measurement: 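Cell viability relative to non-targeting pool wells, replicate mean, with robust z-scores and drug synergy scores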. Direction: robust z-score, no drug: higher = more cells survive knock-down; viability, no drug: higher = more viable cells; synergy with BYL719 and synergy with trametinib and synergy with cetuximab: higher = stronger combined killing with drug. Hit rule: 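Called essential when the robust z-score of viability without drug falls below -3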. Meaning of the calls: active = essential without drug; inactive = no change without drug.
The deposit covers 794 reagents; this is a part drawn at random. 16 of all reagents (2%) count as active. 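Calls concern knock-down without drug only; drug synergy was judged apart, with scores above 0.15 taken as synergy.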 Entries without a mark were called inactive. No viability above 1 is reported: the scale is capped. Reagent sequences are not shown. The record does not give: the amount of reagent, the time to read-out.

no.	gene symbol	robust z-score, no drug	viability, no drug (fraction of control)	synergy with BYL719	synergy with trametinib	synergy with cetuximab
1	TSSK3 (testis specific serine kinase 3)	0.426	1	-0.202	-0.325	-0.0184
2	PRKAB1 (protein kinase AMP-activated non-catalytic subunit beta 1)	-0.638	0.909	-0.0428	-0.0725	-0.0144
3	PMVK (phosphomevalonate kinase)	-0.323	0.936	-0.0665	-0.195	-0.0892
4	SHPK (sedoheptulokinase)	0.426	1	0.0272	-0.116	-0.0964
5	TRPM7	0.426	1	-0.0633	-0.0631	-0.0283
6	PRPS1 (phosphoribosyl pyrophosphate synthetase 1)	0.426	1	-0.0341	0.0207	-0.165
7	ITK (IL2 inducible T cell kinase)	0.426	1	-0.367	-0.421	-0.111
8	CERK (ceramide kinase)	0.426	1	-0.145	-0.0484	-0.0854
9	GRK4 (G protein-coupled receptor kinase 4)	0.426	1	-0.0741	0.11	-0.0345
10	WIPF1 (WAS/WASL interacting protein family member 1)	-1.1	0.869	-0.156	-0.0687	0.0182
11	PRKCD (protein kinase C delta)	-2.98	0.708	-0.0193	-0.0274	-0.121
12	ARID1A (AT-rich interaction domain 1A)	0.426	1	-0.265	-0.238	-0.165
13	DAPK3 (death associated protein kinase 3)	-0.703	0.903	0.18	0.139	0.138
14	DGKB (diacylglycerol kinase beta)	-3.16 (active)	0.692	-0.25	0.00323	-0.237
15	DCLK2 (doublecortin like kinase 2)	0.426	1	-0.182	-0.15	-0.0808
16	ULK1 (unc-51 like autophagy activating kinase 1)	0.426	1	-0.145	-0.156	-0.104
17	BRAF (B-Raf proto-oncogene, serine/threonine kinase)	0.426	1	-0.216	0.131	-0.103
18	HIPK4 (homeodomain interacting protein kinase 4)	0.426	1	-0.181	-0.147	-0.165
19	DTYMK (deoxythymidylate kinase)	0.426	1	0.0085	-0.0875	-0.0756
20	NLK (nemo like kinase)	0.426	1	-0.0845	0.242	-0.103

3 of these entries, reformatted.
gene symbol	robust z-score, no drug	viability, no drug (fraction of control)	synergy with BYL719	synergy with trametinib	synergy with cetuximab
ARID1A (AT-rich interaction domain 1A)	0.426	1	-0.265	-0.238	-0.165
DAPK3 (death associated protein kinase 3)	-0.703	0.903	0.18	0.139	0.138
DGKB (diacylglycerol kinase beta)	-3.16 (active)	0.692	-0.25	0.00323	-0.237
